PubChem BioAssay AID1224827 – NIAID – 2016

- Assay: 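Identify regulators of the macrophage TNF-alpha response to bacterial LPS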 (follow-up of hits)
- Cells: RAW264.7 G9 mouse macrophage reporter clone
- Reagent: single siRNA against mouse genes, 100 nM siRNA
- Duration: siRNA for 2 days, then LPS about 16 h
- Challenge: bacterial lipopolysaccharide (LPS), 10 ng/ml, cells fixed after overnight (about 16 h) stimulation
- Measured: 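Imaged nuclear TNF reporter intensity, background removed, scaled per plate and to non-targeting control wells, as z-scores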
- Direction: TNF reporter z-score, mean: higher = stronger Tnf promoter reporter signal
- Rule for the call: 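An siRNA is called active when its mean z-score over replicates is at least +2 or at most -2; control wells get no call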
Shown is one part, drawn at random, of about 3,800 reagents tested. Over the whole deposit, about 2,200 (57%) were called active. 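Active means a strong reporter change in either direction; calls are per siRNA, not per gene; qiagen siRNAs gave weaker effects.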 The numbers tell different reagents against one gene apart. Not all columns of the deposit are shown.

gene knocked down | siRNA no. | TNF reporter z-score, mean | call
Calm4 | 1 | 6.21 | active
Calm4 | 2 | -1.81 | inactive
Calm4 | 3 | -3.66 | active
Calm4 | 4 | 5.64 | active
Calm4 | 5 | 0.524 | inactive
Calm4 | 6 | -1.93 | inactive
Ldhd | 1 | 0.988 | inactive
Ldhd | 2 | -4.65 | active
Ldhd | 3 | -5.78 | active
Ldhd | 4 | 1.82 | inactive
Ldhd | 5 | -1.13 | inactive
Ldhd | 6 | -2.45 | active
Gdf1 | 1 | 0.887 | inactive
Gdf1 | 2 | -3.34 | active
Gdf1 | 3 | -4.56 | active
Or10q12 | 1 | 2.49 | active
Or10q12 | 2 | -2.71 | active
Or10q12 | 3 | -2.92 | active
Or10q12 | 4 | -0.62 | inactive
Or10q12 | 5 | -1.67 | inactive
Or10q12 | 6 | -3.96 | active

Continued (2 carried over from the part before).
gene knocked down | siRNA no. | TNF reporter z-score, mean | call
Or10q12 | 5 | -1.67 | inactive
Or10q12 | 6 | -3.96 | active
Krt79 | 1 | -3.49 | active
Krt79 | 2 | -4.05 | active
Krt79 | 3 | -4.61 | active
Krt79 | 4 | 1.43 | inactive
Krt79 | 5 | 1.24 | inactive
Krt79 | 6 | -2.68 | active
Tigar | 1 | 1.02 | inactive
Tigar | 2 | -3.53 | active
Tigar | 3 | -3.81 | active
Tigar | 4 | 2.93 | active
Tigar | 5 | 1.6 | inactive
Tigar | 6 | 0.956 | inactive
Inpp5b | 1 | -3.4 | active
Inpp5b | 2 | -3.72 | active
Inpp5b | 3 | -4.31 | active
Inpp5b | 4 | -0.727 | inactive
Inpp5b | 5 | -2.49 | active
Inpp5b | 6 | -2.35 | active
Cyp2c65 | 1 | -3.5 | active
Cyp2c65 | 2 | -4.15 | active
Cyp2c65 | 3 | -3.96 | active
Cyp2c65 | 4 | 2.49 | active
Cyp2c65 | 5 | 2.5 | active
Cyp2c65 | 6 | -0.146 | inactive
Sv2a | 1 | 1.28 | inactive
Sv2a | 2 | 0.488 | inactive
Sv2a | 3 | -4.77 | active
Sv2a | 4 | 2.52 | active
Sv2a | 5 | 2.24 | active
Sv2a | 6 | 1.97 | inactive
Bach2 | 1 | -1.75 | inactive
Bach2 | 2 | -2.36 | active
Bach2 | 3 | -4.32 | active
Bach2 | 4 | -0.886 | inactive
Bach2 | 5 | -0.664 | inactive
Bach2 | 6 | -1.58 | inactive
